Experimental data: PubChem BioAssay AID1259254 (NCATS, 2017)

Assay: 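Gene knock-downs that lead to re-replication, shown by excess G2 DNA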 (primary screen)
Cell system: human HCT116 colorectal cancer cells
Reagents: single siRNA against human genes
Time to read-out: 3 days
Read-out: 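Imaged Hoechst DNA stain sorts each cell into a cycle phase by DNA amount; per plate, G2 fraction set to 0% for non-targeting and 100% for GMNN siRNA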
Reading the numbers: G2 robust z-score: higher = more G2 cells, more excess DNA replication
Active means: 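Active siRNAs have a G2 robust z of 5 or more median absolute deviations over the median, which in these data means about 38% or higher of GMNN control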
The whole screen tested about 59,000 reagents; shown is an unselected part. Of all reagents, about 1,550 (2.6%) got an active call. 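G2 share is only a proxy for re-replication; each gene was hit by three separate siRNAs, and active genes were retested.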 A number with no mark means an inactive call. The numbers tell different reagents against one gene apart. Not all columns of the deposit are shown. The record does not give: the amount of reagent.

For AHSA2P #1, the entry reads G2 robust z-score 0.47.
After knock-down of AHSA2P #2 the results were G2 robust z-score 0.779.
With knock-down of AHSA2P #3, the record shows G2 robust z-score -0.462.
After knock-down of SERBP1 #1, the record shows G2 robust z-score -0.192.
After knock-down of SERBP1 #2, the screen gave G2 robust z-score -0.00229.
Against SERBP1 #3 the deposit lists G2 robust z-score 1.19.
KRT83 #1 showed G2 robust z-score 3.26.
KRT83 #2 scored G2 robust z-score -0.699.
KRT83 #3 gave G2 robust z-score -0.615.
KRT83 #4 showed G2 robust z-score 0.19.
Against KRT83 #5 the deposit lists G2 robust z-score -0.817.
KRT83 #6 gave G2 robust z-score -1.24.
After knock-down of TYRP1 #1, the record shows G2 robust z-score -0.979.
TYRP1 #2 gave G2 robust z-score 0.288.
With knock-down of TYRP1 #3, the record shows G2 robust z-score 0.201.

In a second layout: results already given
{"gene":"KRT83","reagent":4,"G2 robust z-score":0.19}
{"gene":"KRT83","reagent":5,"G2 robust z-score":-0.817}
{"gene":"KRT83","reagent":6,"G2 robust z-score":-1.24}

The results go on:
Against TRAPPC13 #1, the entry reads G2 robust z-score -1.05.
Depletion of TRAPPC13 #2 came out at: G2 robust z-score -0.0272.
Against TRAPPC13 #3, the values are G2 robust z-score -0.389.
With knock-down of TMEM256P1 #1, the screen gave G2 robust z-score 1.98.
With knock-down of TMEM256P1 #2, the screen gave G2 robust z-score 0.471.
Depletion of TMEM256P1 #3 came out at: G2 robust z-score 0.776.
Against PTK7 #1, the values are G2 robust z-score -0.836.
Knock-down of PTK7 #2 resulted in: G2 robust z-score -1.52.
Knock-down of PTK7 #3 resulted in: G2 robust z-score -0.609.
